In EP4847499A1, “HETEROCYCLIC COMPOUND FOR INDUCING DEGRADATION OF KRAS PROTEIN” (dated 2026):
The match of structure and compound is tentative.

Tests used:
Assay in all cases: Non-anchorage-dependent cell growth inhibition, spheroid 3D cell culture (CellTiter Glo 2.0)
[1] = test system: human G12C mutant KRAS-positive pancreatic cancer line MIA PaCa-2; settings: read-out: G12C (MIA PaCa-2) IC50; MIA PaCa-2, 3D spheroid, 6 days
Description: (§1) Test Example 2: Evaluation of non-anchorage-dependent cell growth inhibitory effect on human G12V mutant KRAS-positive pancreatic cancer line PA-TU-8902, human G12D mutant KRAS-positive pancreatic cancer line PK-59, human G12C mutant KRAS-positive pancreatic cancer line MIA PaCa-2, human G12C mutant KRAS-positive lung cancer line NCI-H358, human G12D mutant KRAS-positive colorectal cancer line GP2d, human G13D mutant KRAS-positive colorectal cancer line LoVo, or human wild-type KRAS gene amplification-positive gastric cancer line MKN1 The non-anchorage-dependent cell growth inhibitory effect of test compounds was evaluated by spheroid 3D cell culture.
(§2) PA-TU-8902 cells or GP2d cells (ECACC, 95090714), Pk-59 cells (RIKEN BRC, RCB1901), MIA PaCa-2 cells (RIKEN BRC, RCB2094), NCI-H358 cells (ATCC, CRL-5807), LoVo cells (ATCC, CCL-229), or MKN1 cells (JCRB, JCRB0252) were seeded on low-cell-adhesive round bottom 384-well plates (Prime Surface: from Sumitomo Bakelite) at 36 µL/well to give 5 × 10^2 cells per well, and the PA-TU-8902 cells were cultured under the same conditions as in Test Example 1. The GP2d cells were cultured using DMEM medium containing 10% fetal bovine serum in the presence of 5% CO2 at 37°C. The PK-59 cells, MIA PaCa-2 cells, LoVo cells, NCI-H358 cells, or MKN1 cells were cultured using RPMI-1640 medium (from Sigma-Aldrich) containing 10% fetal bovine serum in the presence of 5% CO2 at 37°C.
(§3) The next day, the test compounds (10 points having final concentrations in the range of 10 µM to 0.03 nM) and DMSO, which was the solvent for the test compounds, as a negative control were diluted 100-fold with a fresh medium and were added at 4 µL to each well containing the PA-TU-8902 cells, PK-59 cells, MIA PaCa-2 cells, LoVo cells, NCI-H358 cells, or MKN1 cells. After culturing in the presence of 5% CO2 at 37°C for 6 days, CellTiter Glo 2.0 (from Promega) was added at 20 µL per well. After stirring with a plate mixer at room temperature for 1 hour, the luminescent signals were measured with ARVO X3 (from PerkinElmer).
(§4) With the signaling value in treatment with DMSO taken as a survival rate of 100% and with the signaling value in the medium alone without cells taken as a survival rate of 0%, the 50% inhibitory concentration (IC50) was calculated by Sigmoid-Emax model nonlinear regression analysis.

[2] = test system: human G12D mutant KRAS-positive pancreatic cancer line PK-59; settings: read-out: G12D (PK-59) IC50; PK-59, 3D spheroid, 6 days
Description: as §1, §2, §3, §4

[3] = test system: human G12V mutant KRAS-positive pancreatic cancer line PA-TU-8902; settings: read-out: G12V (PA-TU-8902) IC50; PA-TU-8902, 3D spheroid, 6 days
Description: as §1, §2, §3, §4

[4] = test system: human G13D mutant KRAS-positive colorectal cancer line LoVo; settings: read-out: G13D (LoVo) IC50, 3D spheroid, 6 days
Description: as §1, §2, §3, §4

Structure (SMILES) | IC50 [1] [µM] | IC50 [2] [µM] | IC50 [3] [µM] | IC50 [4] [µM]
Cc1c(F)cc2[nH]ncc2c1-c1c(C2CC2)cc2c(N3CC[C@H]3C(N)=O)nc(OC3CCN(C)CC3)nc2c1OCc1ccc(C(=O)N2CCC3(CCC(CC#Cc4cncc(N5CCC(=O)NC5=O)c4)CC3)CC2)cc1 | 0.011 | 0.041 | 0.041 | 0.17
Cc1c(F)cc2[nH]ncc2c1-c1c(C2CC2)cc2c(N3CC[C@H]3C(N)=O)nc(OCC(C)(C)CN(C)C)nc2c1OCc1ccc(C(=O)N2CCC3(CCC(CCOc4nnc(N5CCC(=O)NC5=O)n4C)CC3)CC2)cc1 | 0.0093 | 0.017 | 0.02 | 0.23
Cc1c(F)cc2[nH]ncc2c1-c1c(C2CC2)cc2c(N3CC[C@H]3C(N)=O)nc(OCC(C)(C)CN(C)C)nc2c1OCc1ccc(C(=O)N2CCC3(CCC(CCCn4cc(N5CCC(=O)NC5=O)cn4)CC3)CC2)cc1 | 0.003 | 0.012 | 0.0067 | 0.042
Cc1c(F)cc2[nH]ncc2c1-c1c(C2CC2)cc2c(N3CC[C@H]3C(N)=O)nc(OCC(C)(C)CO)nc2c1OCc1ccc(C(=O)N2CCC3(CCC(CCOc4cncc(N5CCC(=O)NC5=O)c4)CC3)CC2)cc1 | 0.0028 | 0.0048 | 0.0057 | 0.04
Cc1c(C#CCC2CCC3(CC2)CCN(C(=O)c2ccc(COc4c(-c5c(C)c(F)cc6[nH]ncc56)c(C5CC5)cc5c(N6CC[C@H]6C(N)=O)nc(N6CCN(C)[C@@H](C)C6)nc45)cc2)CC3)cncc1N1CCC(=O)NC1=O | 0.0051 | 0.013 | 0.02 | 0.055
CCN1CCN(c2nc(N3CC[C@H]3C(N)=O)c3cc(C4CC4)c(-c4c(C)c(F)cc5[nH]ncc45)c(OCc4ccc(C(=O)N5CCC6(CCC(CC#Cc7cncc(N8CCC(=O)NC8=O)c7)CC6)CC5)cc4)c3n2)C[C@@H]1C | 0.0029 | 0.006 | 0.012 | 0.031
CN(C)CC(C)(C)COc1nc(N2CC[C@H]2C(N)=O)c2cc(C3CC3)c(-c3cc(O)cc(F)c3C3CC3)c(OCc3ccc(C(=O)N4CCC5(CC4)CN(c4cc6c(cc4F)c(N4CCC(=O)NC4=O)nn6C)CCO5)cc3)c2n1 (single isomer, unassigned) | 0.0073 | 0.066 | 0.018 | 0.16
Cc1c(F)cc2[nH]ncc2c1-c1c(C2CC2)cc2c(N3CC[C@H]3C(N)=O)nc(OCC(C)(C)CN(C)C)nc2c1OCc1ccc(C(=O)N2CCC3(CCC(N4CCC=C(c5cccc(N6CCC(=O)NC6=O)c5)C4)CC3)CC2)cc1 | 0.0088 | 0.067 | 0.012 | 0.14
Cc1c(F)cc2[nH]ncc2c1-c1c(C2CC2)cc2c(N3CC[C@H]3C(N)=O)nc(OCC(C)(C)CN(C)C)nc2c1OCc1ccc(C(=O)N2CCC3(CC2)CCC(O)(CC#Cc2cccc(N4CCC(=O)NC4=O)c2F)CC3)cc1 | 0.0046 | 0.0096 | 0.02 | 0.075
Cc1c(F)cc2[nH]ncc2c1-c1c(C2CC2)cc2c(N3CC[C@H]3C(N)=O)nc(OCC(C)(C)CN(C)C)nc2c1OCc1ccc(C(=O)N2CCC3(CC2)CCN(C(C)(C)C#Cc2cccc(N4CCC(=O)NC4=O)c2)CC3)cc1 | 0.011 | 0.039 | 0.025 | 0.19
COC1(CCOc2cccc(N3CCC(=O)NC3=O)c2)CCC2(CCN(C(=O)c3ccc(COc4c(-c5c(C)c(F)cc6[nH]ncc56)c(C5CC5)cc5c(N6CC[C@H]6C(N)=O)nc(OCC(C)(C)CN(C)C)nc45)cc3)CC2)CC1 | 0.0039 | 0.0057 | 0.011 | 0.051
Cc1c(F)cc2[nH]ncc2c1-c1c(C2CC2)cc2c(N3CC[C@H]3C(N)=O)nc(OCC(C)(C)CN(C)C)nc2c1OCc1ccc(C(=O)N2CCC3(CCC(C(O)C#Cc4cccc(N5CCC(=O)NC5=O)c4)CC3)CC2)cc1 (some centres unmarked) | 0.0067 | 0.03 | 0.021 | 0.12
COCCN1CCC(Oc2nc(N3CC[C@H]3C(N)=O)c3cc(C4CC4)c(-c4c(C)c(F)cc5[nH]ncc45)c(OCc4ccc(C(=O)N5CCC6(CC5)CCN(C5(COc7nccc(N8CCC(=O)NC8=O)c7C)CC5)CC6)cc4)c3n2)CC1 | 0.018 | 0.076 | 0.036 | 0.67
Cc1c(F)cc2[nH]ncc2c1-c1c(C2CC2)cc2c(N3CC[C@H]3C(N)=O)nc(N3CCC(CN(C)C)CC3)nc2c1OCc1ccc(C(=O)N2CCC3(CCC(CCOc4cncc(N5CCC(=O)NC5=O)c4)CC3)CC2)cc1 | 0.0042 | 0.015 | 0.016 | 0.091
Cc1c(OCCC2CCC3(CC2)CCN(C(=O)c2ccc(COc4c(-c5c(C)c(F)cc6[nH]ncc56)c(C5CC5)cc5c(N6CC[C@H]6C(N)=O)nc(N6CCN(C)C7(CC7)C6)nc45)cc2)CC3)cncc1N1CCC(=O)NC1=O | 0.0049 | 0.0073 | 0.012 | 0.047
Cc1c(F)cc2[nH]ncc2c1-c1c(C2CC2)cc2c(N3CC[C@H]3C(N)=O)nc(N3CC(F)(CN(C)C)C3)nc2c1OCc1ccc(C(=O)N2CCC3(CCC(CCOc4cncc(N5CCC(=O)NC5=O)c4)CC3)CC2)cc1 | 0.0022 | 0.0056 | 0.0073 | 0.035
CO[C@@H](C)COc1nc(N2CC[C@H]2C(N)=O)c2cc(C3CC3)c(-c3c(C)c(F)cc4[nH]ncc34)c(OCc3ccc(C(=O)N4CCC5(CCC(CCOc6nccc(N7CCC(=O)NC7=O)c6F)CC5)CC4)cc3)c2n1 | 0.0097 | 0.011 | 0.013 | 0.039
Cc1c(F)cc2[nH]ncc2c1-c1c(C2CC2)cc2c(N3CC[C@H]3C(N)=O)nc(OCC(C)(C)CN(C)C)nc2c1OCc1ccc(C(=O)N2CC3(CCN(CC#Cc4cccc(N5CCC(=O)NC5=O)c4)CC3)C2)cc1 | 0.0096 | 0.017 | 0.03 | 0.2
Cc1c(F)cc2[nH]ncc2c1-c1c(C2CC2)cc2c(N3CC[C@H]3C(N)=O)nc(OCC3(CN(C)C)CCC3)nc2c1OCc1ccc(C(=O)N2CCC3(CCC(CCOc4cncc(N5CCC(=O)NC5=O)c4)CC3)CC2)cc1 | 0.024 | 0.018 | 0.032 | 0.047
Cc1c(F)cc2[nH]ncc2c1-c1c(C2CC2)cc2c(N3CC[C@H]3C(N)=O)nc(OCC(C)(C)CN3CCOCC3)nc2c1OCc1ccc(C(=O)N2CCC3(CCN(CC#Cc4cc(N5CCC(=O)NC5=O)ccn4)CC3)CC2)cc1 | 0.0021 | 0.0074 | 0.0059 | 0.032
Cc1c(N2CCC(=O)NC2=O)ccnc1OCCN1CCC2(CC1)CCN(C(=O)c1ccc(COc3c(-c4c(C)c(F)cc5[nH]ncc45)c(C4CC4)cc4c(N5CCC5C(N)=O)nc(OCC(C)(C)CN5CCC(F)C5)nc34)cc1)CC2 (centres unmarked) | 0.0016 | 0.0077 | 0.002 | 0.028
Cc1c(F)cc2[nH]ncc2c1-c1c(C2CC2)cc2c(N3CC[C@H]3C(N)=O)nc(OCC(C)(C)CN(C)C)nc2c1OCc1ccc(C(=O)N2CCC3(CC2)CN(c2cc4c(cc2F)c(N2CCC(=O)NC2=O)nn4C)CCO3)cc1 | 0.0028 | 0.011 | 0.011 | 0.13
Cc1c(F)cc2[nH]ncc2c1-c1c(C2CC2)cc2c(N3CC[C@H]3C(N)=O)nc(N3CCC4(CCN(C)C4)CC3)nc2c1OCc1ccc(C(=O)N2CCC3(CCC(CCOc4cncc(N5CCC(=O)NC5=O)c4)CC3)CC2)cc1 | 0.0069 | 0.03 | 0.029 | 0.23
